In patent US20230399298A1 (priority 2020, published 2023):

Conditions: donepezil composition, SD rats, intramuscular, 4 mg/kg of donepezil

COc1cc2c(cc1OC)C(=O)C(CC1CCN(Cc3ccccc3)CC1)C2 (stereo not shown) [D (Donepezil), 2-((1-benzylpiperidin-4-yl)methyl)-5,6-dimethoxy-2,3-hydro-1H-inden-1-one]
release of the drug was terminated: ≤ 3 days
